23 sequences from PMC7819943, “Rice protein-binding microarrays: a tool to detect cis-acting elements near promoter regions in rice” can be followed below.

Some of the results follow.

This test has as its target T1, OsSMF1 (Oryza sativa, UniProt Q6ZLB0 1-436).
T1 sequence: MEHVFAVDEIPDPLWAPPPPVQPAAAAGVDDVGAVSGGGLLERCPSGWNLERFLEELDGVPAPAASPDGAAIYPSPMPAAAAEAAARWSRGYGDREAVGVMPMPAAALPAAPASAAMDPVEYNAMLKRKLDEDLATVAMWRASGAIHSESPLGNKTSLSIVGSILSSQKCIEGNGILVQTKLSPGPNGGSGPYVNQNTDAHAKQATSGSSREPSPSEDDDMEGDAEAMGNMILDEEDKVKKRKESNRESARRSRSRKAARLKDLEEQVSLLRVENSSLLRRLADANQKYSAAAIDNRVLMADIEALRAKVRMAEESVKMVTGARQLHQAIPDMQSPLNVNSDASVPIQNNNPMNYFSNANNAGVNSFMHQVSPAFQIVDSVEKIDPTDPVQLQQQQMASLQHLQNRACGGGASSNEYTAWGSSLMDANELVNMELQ
In words: protein-binding microarray (RPBM); PBS, 2% BSA, 51.3 ng/ul salmon testes DNA, 50 uM zinc acetate, 200 nM TF, 25 C, 1 h; high values mean tight binding. To be noted: protein: recombinant; tags: N-terminal polyhistidine and DsRed monomer fusion (pET32a); chain copies: 2; label: CyDye5-dUTP incorporated in the synthesized complementary strand; 3' TTTTT single-stranded linker to array surface; dsDNA, one strand shown. In short, it runs like this: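 In PBS with 2% BSA, salmon testes DNA and 50 µM zinc acetate, 200 nM protein was incubated on a custom Agilent array at 25 °C for 1 h and then washed off. The array had been made double-stranded by primer extension with Cy5-dUTP and blocked with 2% BSA. The proteins were transcription factors fused N-terminally to polyhistidine and DsRed, expressed in E. coli BL21-CodonPlus and purified on Ni–NTA. The binding signal is per-feature fluorescence intensity (arbitrary units) from an Axon 4000B scanner.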
“TCTTCCCCTGTTTCTGACCAATCCCCTCTGCTCTCTCCTCCGGAGTCACCTAGTGCAG”: the binding signal was 3570 fluorescence intensity (a.u.). Take “GTTTTCCATCGACCGATCGGTGAATCACCCGGTGCTAGTACGGAGTCACCTAGTGCAG”: the binding signal is 3400 fluorescence intensity (a.u.). As for “CACGCGATCGGTTGCCACATCGATCGTCCGTTGCTTTGGACGGAGTCACCTAGTGCAG”, the binding signal is 4000 fluorescence intensity (a.u.). Consider “GGAACTTGGTCAAAACTCCGGTTTTCGAAAGCTGCTAATTCGGAGTCACCTAGTGCAG”, for which the binding signal was 24100 fluorescence intensity (a.u.).

Turning to “TCTCTCTCATTGGGCCACGCACGTCACTGATGCTTGAGCCCGGAGTCACCTAGTGCAG”, the binding signal was 9140 fluorescence intensity (a.u.). Take “CGACTCCACCAACCCCAGCCCACCCCACGTCACGCCGCACCGGAGTCACCTAGTGCAG”: the binding signal is 10100 fluorescence intensity (a.u.). Consider “TCACGCGCCGCCGCCGCCTGTCGTGTAACCCACCACCTCCCGGAGTCACCTAGTGCAG”, for which the binding signal is 4370 fluorescence intensity (a.u.). Consider “CATTCTCCTTCTCTCTCGTACGGCTAGAGGTTGAAGACGACGGAGTCACCTAGTGCAG”, for which the binding signal is 3760 fluorescence intensity (a.u.).

Regarding “TTACCTGCTGACCTGTGTTTGTGTGTGATCTACTATCTGCCGGAGTCACCTAGTGCAG”, the binding signal is 7070 fluorescence intensity (a.u.).

For the sequence “GCCGCCGCCGCCGCCGCCCTCGCCATCGCCTCCGCGAGCGCGGAGTCACCTAGTGCAG”, the binding signal was 4480 fluorescence intensity (a.u.). In the case of “GGCGGATATTGTGTCCGGCGCCTGTCATGTTGCTAGATTCCGGAGTCACCTAGTGCAG”, the binding signal is 3660 fluorescence intensity (a.u.). For the sequence “TTGCGTGGTGTAAATTGTGCCTATCCAACGTGGAAAGACACGGAGTCACCTAGTGCAG”, the binding signal is 3920 fluorescence intensity (a.u.). On to “TAATTACCTCCATCCCAAAACACTAGTTGTTTTGAGTTTTCGGAGTCACCTAGTGCAG”, for which the binding signal was 3440 fluorescence intensity (a.u.). As to “TGAGCCCCACTGTGCTCACCTAACCCATACACGCGGAGCACGGAGTCACCTAGTGCAG”, the binding signal is 3890 fluorescence intensity (a.u.). In the case of “CCGTGGACCAGCGCCAACCCTCGCCACCGCACGTCGCCGGCGGAGTCACCTAGTGCAG”, the binding signal is 27800 fluorescence intensity (a.u.).

Consider “GATCGCATGGCATTACGACAAACCATGACCACATGGATGACGGAGTCACCTAGTGCAG”, for which the binding signal was 3280 fluorescence intensity (a.u.). “ACAACGAGAATGGCAACGTCAGAGACCTCAAACACCACGGCGGAGTCACCTAGTGCAG”: the binding signal is 4300 fluorescence intensity (a.u.). As for “TGCCGTCTTCCTCGTCTCCGGTGACTCTTCGCCGCCGGATCGGAGTCACCTAGTGCAG”, the binding signal is 3660 fluorescence intensity (a.u.).

As to “CAAACGGGTGTATGGTGTGTATTCTTCTCCTCCAAAGTTGCGGAGTCACCTAGTGCAG”, the binding signal was 3580 fluorescence intensity (a.u.). As for “GTCTCCGCCATCCGCCCGTCCGCCTCTCCGTTCGACCTCGCGGAGTCACCTAGTGCAG”, the binding signal is 4910 fluorescence intensity (a.u.).

For “CGAATAAGCCCTTAATGTGTACGTTATTTGGTTTATCCACCGGAGTCACCTAGTGCAG”, the binding signal is 3240 fluorescence intensity (a.u.).

Turning to “CCCCACATGTCAGTGACGCGGCGCACAAGGTCAAAGCCTACGGAGTCACCTAGTGCAG”, the binding signal is 4820 fluorescence intensity (a.u.). For the sequence “CACACCTGACACAACACTTACACATCATACCAGAAGAAAACGGAGTCACCTAGTGCAG”, the binding signal was 3210 fluorescence intensity (a.u.).
